Measurements as given in PubChem BioAssay AID493014 (National Center for Advancing Translational Sciences (NCATS), 2011).
In all, about 340,000 compounds went through this assay and about 170 (0.05%) were called active. Inconclusive results, whose numbers are uncertain, are shown with a selection of clear calls. The call rests on the fitted dose curve; in most records, active means well fitted inhibition curve with a large enough effect in the signal ratio, with a control signal flat (not every such curve was filed as active); inconclusive means small, poorly fitted or top-dose-only effect, or effect the other way, or a change in a side signal; inactive means flat fitted curve, though single readings scatter; the % refers to the signal ratio. Potencies of inconclusive entries are doubtful fits and often do not repeat.

assay: qHTS Assay to Find Inhibitors of Chronic Active B-Cell Receptor Signaling; details: ABC-DLBCL IkBa-CBG/CBR reporter, luminescence ratio (green luciferase fused to IkBa over red control in TMD8 lymphoma cells), 4 h; activity change, negative = inhibition: at 46.1 µM (top of the series)
Source text: NIH Molecular Libraries Probe Production Network [MLPCN] NIH Chemical Genomics Center [NCGC] MLPCN Grant: 1 R03 DA031086-01A1 PI Name: Dr. R. Eric Davis NCGC Assay Overview: Diffuse large B-cell lymphoma (DLBCL) is the most common category of non-Hodgkin lymphoma, with ~20,000 new cases per year in the United States. DLBCL should be regarded as a collection of different neoplasms. Microarray gene expression analysis has defined two principal types of DLBCL, named for their similarity to normal B cell stages or activation states: a germinal center B-cell (GCB) type, and an activated B-cell (ABC) type. In ABC-DLBCL, a constitutive high-level activity of the NF-kappaB family of transcription factors has been observed (1) and NF-kappaB target genes are more highly expressed in ABC primary tumors than in GCB tumors. Functional studies have shown a constitutive high-level activity of the IkappaB (inhibitor of kappa-B) kinase (IKK) complex. […] Further analysis of DLBCL primary tumors for NF-kappaB target gene expression imply that although CARD11 is required for constitutive IKK activity in all ABC-DLBCL lines, mutations in CARD11 may be the root cause of IKK activation only in lines or tumors with such mutations. In other words, CARD11 mutations may explain NF-kappaB activation in only 10% of ABC-DLBCL cases. […] This process has been termed 'chronic active BCR signaling' (CABS). The goal of this screen is to find small-molecule inhibitors of the CABS pathway found in ABC-DLBCL lines using a cell-based assay that measures IkappaBalpa stability, which has already been extensively validated in the OCI-Ly3 line (PubChem AID:445; REF: 4). […] The assay uses green (CBG68) and red (CBR) emitting beetle luciferases [Chroma-GloTM developed by Promega Corp.] where the green luciferase is fused to IkappaBalpha and the red luciferase is present in its native state. Both luciferase genes are stably present in the TMD8 human ABC DLBCL cell line, but their expression is under the control of tetracycline-inducible promoters. Following the addition of doxycycline to induce expression of the luciferases, the green luminescence in control cultures rises only slowly because the CBG fusion partner IkappaBalpha is targeted by IKK activity for rapid degradation. In contrast, green luminescence rises rapidly in the presence of proteasome inhibitors or IKK inhibitors. The rise in red luminescence of CBR is not affected by proteasome or IKK inhibitors, and serves as normalization for cell number and nonspecific effects. Compounds were screened as a concentration-titration series that ranged from 46 uM to 3 nM.
NCGC Assay Protocol Summary: Cells were seeded in 1536-well plates at 5000 cells/4uL in IMDM medium containing 0.5% FBS, w/o phenol red, 1% penicillin/streptomycin. Then, 23 nL of compounds or DMSO were delivered to each well using a pin tool. One uL 20ng/ml doxycycline was then dispensed into white solid 1536-well plates and the plates were incubated at 37C/5% C02 in a cell incubator for 4 hrs. Then 4 uL luminescent substrate mix (in-house prepared: 150 mM Tris-Cl, pH 7.6, 3 mM MgCl2, 1% Triton X-100, 5 mM DTT, 0.2 mM CoA, 0.15 mM ATP, 5 mM D-luciferin, final concentrations) was added to each well. The plate was incubated at r.t. for 10-15 min. The plates were measured on a ViewLux plate reader for green luminescence (540/20 nm filter) and red luminescence (618/8 nm filter). The green and red luminescent signals were corrected for red and green luminescence filter overlap using previously determined filter calibration constants (determined using the procedure outlined in the Promega Technical Manual; REF 4). The %Activity was determined from the ratio of corrected green/red luminescent values. MG132 were used as control. […] Red luminescent %Activity was normalized to the difference between red luminesence in basal cells (0%Activity) and zero luminescence (-100% Activity). […]
Potency means the concentration at half of the fitted maximal effect.

Structure (SMILES) | activity change, negative = inhibition | Potency
CCCCNC(=O)c1c(O)c2cccc3c2n(c1=O)CCC3 | inactive | 
COc1cc2cc(CN(CCc3cccc(C)c3)C(=S)NCCCN3CCOCC3)c(=O)[nH]c2cc1OC | inactive | 
CC(=O)N1CCN(c2nc3ccc([N+](=O)[O-])cc3s2)CC1 | inactive | 
Nc1cccc(C(=O)Nc2ccc(N)cc2Cl)c1 |  | inconclusive: 14.6 µM [falling, partial curve, poor fit]
CCOC(=O)c1oc2ccc(S(=O)(=O)n3nc(-c4ccc(OC)cc4)cc3N)cc2c1C | inactive | 
Cc1cccc(Nc2nc(-c3ccccn3)cs2)n1 |  | inconclusive: 6.51 µM [falling, single point]
COc1cc(C(=O)Nc2cc3c(cc2N2CCCCC2)n(C)c(=O)n3C)cc(OC)c1OC | inactive | 
C=CCN(CC=C)C(=O)Nc1cc(OC)ccc1OC | inconclusive: 5.91% | 
CC(C)C[C@H](NC(=O)c1nc[nH]c1C(=O)NC(c1ccccc1)c1ccccc1)C(=O)OCc1ccccc1 |  | inconclusive: 5.01 µM [rising, full curve, poor fit]
CSc1nc(N)n(-c2cc(C(F)(F)F)ccn2)n1 | inconclusive: 29.7% | 
O=C(CSc1nncn1-c1ccccc1)Nc1cccc(S(=O)(=O)N2CCCCC2)c1 | inconclusive: 0.651% | 
COc1cccc(C2c3c(-c4cc(Cl)c(C)cc4O)n[nH]c3C(=O)N2Cc2cccnc2)c1 (stereo unspecified) | inconclusive: -2.93% | 
CCOC(=O)c1cc(NC(=O)c2cccs2)ccc1N1CCOCC1 |  | inconclusive: 35.5 µM [falling, single point]
COc1cc(C(=S)N2CCOCC2)cc(OC)c1OC(=O)c1ccc(F)cc1 | inactive | 
CC(Oc1ccc(Br)cc1)C(=O)Nc1ccncc1 (stereo unspecified) | inactive | 
COC(=O)c1cc(OC)c(OC)cc1NC(=O)c1csc(C)c1 | inconclusive: 0.17% | 
Cc1ccsc1/C=N/NC(=O)c1ccccn1 |  | inconclusive: 23.1 µM [falling, partial curve]
CN1/C(=C/c2cccc[n+]2CCO)Sc2ccccc21 | inactive | 
CC(C)CN(C(=O)COC(=O)c1ccc2c(c1)NC(=O)CS2)C1CCS(=O)(=O)C1 (stereo unspecified) |  | inconclusive: 17.8 µM [falling, single point]
NS(=O)(=O)c1ccc(NC(=O)COC(=O)COc2ccc(Cl)cc2)cc1 | inactive | 
CCCC1(C)Nc2ccccc2-c2nc3ccccc3n21 (stereo unspecified) | inactive | 

Structure (SMILES) | activity change, negative = inhibition | Potency
N#CC(C#N)=C1C=C2C=C(N3CCCCCC3)CCC2CC1 (stereo unspecified) |  | inconclusive: 14.6 µM [rising, single point]
O=C(NCCCN1CCN(c2cccc(Cl)c2)CC1)c1nc(-c2ccncc2)no1 | inconclusive: -13.3% | 
COc1cccc(N(CC(=O)N2CCc3ccccc3C2)S(C)(=O)=O)c1 | inconclusive: -1.66% | 
O=C(/C=C/Nc1ccc(S(=O)(=O)Nc2cnc3ccccc3n2)cc1)c1ccccc1 | inconclusive: 4.37% | 
CCOC(=O)c1c(CN2CCN(CC#N)CC2)n(C)c2cc(Br)c(OC)cc12 |  | inconclusive: 15.8 µM [falling, partial curve]
Cc1c(C)c2ccc(OCC(=O)c3ccccc3)cc2oc1=O | inconclusive: 2.6% | 
Cc1ccc(C2N=C(N)Nc3nc4ccccc4n32)cc1 (stereo unspecified) | inactive | 
CCCCOc1cccc(C(=O)NC(=S)Nc2cccc(NC(=O)c3ccccc3Cl)c2)c1 | inactive | 
Fc1ccc(Cn2cc(C(=S)N3CCOCC3)c3ccccc32)cc1 | inactive | 
COc1ccc(Cc2nnc(SCC(=O)Nc3cc(Cl)ccc3C)[nH]c2=O)cc1 | inactive | 
COc1ccc(N(Cc2cc3cccc(C)c3[nH]c2=O)S(C)(=O)=O)cc1 | inconclusive: -6.73% | 
O=S(=O)(NCc1ccccc1)c1ccc(Br)c2nsnc12 | inactive | 
O=C1CC(C(=O)N2CCCc3ccccc32)CN1c1ccc(Cl)cc1 (stereo unspecified) | inactive | 
CCCCCCC12CCC(C(=O)O)(CC1)CC2 | inconclusive: -0.93% | 
COc1ccc2oc(C(=O)OCC(=O)N3C(C)CCCC3C)c(C)c2c1 (stereo unspecified) | inconclusive: 3.01% | 
COCCCn1c(SCC(=O)OC2CCCCC2)nnc1-c1ccco1 | inconclusive: 1.85% | 
COc1ccccc1Nc1ncnc2c1oc1ccccc12 | inconclusive: 3.96% | 
COc1cccc2sc3ccc(C#CC4(O)CCCCC4)cc3c(=O)c12 | inconclusive: 13.5% | 
Cc1nc2c(c(=O)n1Cc1ccco1)c1nc3ccccc3nc1n2Cc1ccccc1 | inconclusive: 22.8% | 
C(=N\Nc1ccccc1)/c1nc2ccccc2s1 |  | inconclusive: 17.8 µM [falling, partial curve]
O=C(N/N=C/c1ccccc1)c1ccc(OCc2ccccc2)cc1 |  | inconclusive: 28.2 µM [falling, single point]

8 entries from above in another layout.
Structure (SMILES)	activity change, negative = inhibition	Potency
O=S(=O)(NCc1ccccc1)c1ccc(Br)c2nsnc12	inactive	
O=C1CC(C(=O)N2CCCc3ccccc32)CN1c1ccc(Cl)cc1 (stereo unspecified)	inactive	
CCCCCCC12CCC(C(=O)O)(CC1)CC2	inconclusive: -0.93%	
COc1ccc2oc(C(=O)OCC(=O)N3C(C)CCCC3C)c(C)c2c1 (stereo unspecified)	inconclusive: 3.01%	
COCCCn1c(SCC(=O)OC2CCCCC2)nnc1-c1ccco1	inconclusive: 1.85%	
COc1ccccc1Nc1ncnc2c1oc1ccccc12	inconclusive: 3.96%	
COc1cccc2sc3ccc(C#CC4(O)CCCCC4)cc3c(=O)c12	inconclusive: 13.5%	
Cc1nc2c(c(=O)n1Cc1ccco1)c1nc3ccccc3nc1n2Cc1ccccc1	inconclusive: 22.8%	

(continued)

Structure (SMILES) | activity change, negative = inhibition | Potency
COC(=O)[C@H](Cc1ccccc1)NC(=O)NCc1cccs1 | inconclusive: 7.99% | 
CCOC(=O)Cc1csc(NC(=O)/C=C/c2ccc(OC)cc2)n1 |  | inconclusive: 10 µM [falling, partial curve]
COc1ccc(Cl)cc1C(=O)NNC(=O)CCNS(=O)(=O)c1ccccc1 | inactive | 
COc1ccccc1NCc1ccc([N+](=O)[O-])s1 | inactive | 
Cc1ccc(NC(=S)NCc2ccc3c(c2)cc(C)n3C)c(C)c1 | inactive | 
COc1ccc(C2=NN(CCC(=O)NCc3ccc4c(c3)OCO4)C(=O)CC2)cc1 | inconclusive: -0.564% | 
CCCn1c(CN(Cc2ccccc2)Cc2ccccc2)nc2c1c(=O)n(C)c(=O)n2C | inconclusive: 8.71% | 
N/C(=N/OCC(=O)Nc1cccc2ccccc12)c1nonc1N |  | inconclusive: 20 µM [falling, partial curve, poor fit]
COC(=O)CSc1[nH]c2ccccc2c1[N+](=O)[O-] | inactive | 
NS(=O)(=O)c1cc(C(=O)OCC(=O)Nc2ccccc2[N+](=O)[O-])ccc1Cl | inactive | 
COc1ccc(O)c(/C=N\NC(=O)CCn2nnc3ccccc32)c1 |  | inconclusive: 20.6 µM [falling, single point]
Cc1ccc(S(=O)(=O)Nc2cccc(C(=O)NCC(c3ccc(F)cc3)N3CCOCC3)c2)cc1 (stereo unspecified) | inactive | 
CCOc1ccc(C2C(C(=O)Nc3ccccc3)=C(C)N=c3s/c(=C/c4cccc(OCC(=O)O)c4)c(=O)n32)cc1 (stereo unspecified) | inconclusive: 7.84% | 
Cn1c(=O)c2c(nc(SCC(=O)N3CCc4ccccc4C3)n2C)n(C)c1=O | inconclusive: 8.58% | 
Cc1cc(C)c(S(=O)(=O)Nc2cccc3nsnc23)c(C)c1 | inactive | 
CC1=Nc2ccccc2/C1=C\c1nc(-c2ccc(F)cc2)oc1O | inconclusive: 16% | 
COC(=O)C1=C(C)NC2=C(C(=O)CCC2)C1c1cccs1 (stereo unspecified) | inconclusive: -12.4% | 
COC(=O)Cc1csc(NC(=O)c2ccc3ncsc3c2)n1 |  | inconclusive: 23.1 µM [falling, partial curve]
Cc1csc(NC(=O)C(C)Oc2ccc(Cl)cc2C)n1 (stereo unspecified) | inconclusive: -1.2% | 
O=C(Nc1nc(-c2ccccn2)cs1)c1ncc(Cl)c(Cl)c1Cl |  | inconclusive: 25.1 µM [falling, single point]
Cc1cc(NC(=O)c2cc(C)on2)n(-c2ccccc2)n1 | inconclusive: 1.87% | 

Structure (SMILES) | activity change, negative = inhibition | Potency
CC(=O)Nc1ccc(SCC(=O)c2cc(C)n(-c3ccccc3F)c2C)cc1 |  | inconclusive: 18.4 µM [falling, single point]
CCCc1[nH]nc2c1C(c1ccoc1)C(C#N)=C(N)O2 (stereo unspecified) |  | inconclusive: 29.1 µM [falling, single point]
CCc1csc(CCNC(=O)C2CCC(=O)N(CCc3cccc(F)c3)C2)n1 (stereo unspecified) | inactive | 
O=c1ccc(Cc2ccccn2)n[nH]1 |  | inconclusive: 0.651 µM [falling, partial curve, poor fit]
C/C(=N\NC(=O)c1nnn(-c2nonc2N)c1-c1ccc(Cl)c(Cl)c1)c1ccncc1 | inconclusive: -4.31% | 
CCn1c(SCC(=O)Nc2sc(C)c(C)c2C#N)nnc1C(C)C | inconclusive: 14% | 
CCCCCn1c(SC(C)C(C)=O)nc2c1c(=O)[nH]c(=O)n2C (stereo unspecified) | inconclusive: 1.47% | 
CCOC(=O)c1c(NC(=O)CSc2cccc[n+]2[O-])sc(C(=O)Nc2ccccc2)c1C |  | inconclusive: 22.4 µM [falling, single point]
COc1ccc(-c2nsc(SCC(=O)NCC3CCCO3)n2)cc1 (stereo unspecified) | inconclusive: 0.331% | 
C[C@H](CO)N1C[C@H](C)[C@@H](CN(C)Cc2ccc(Oc3ccccc3)cc2)Oc2c(NC(=O)C3CC3)cccc2C1=O | inconclusive: -4.98% | 
CCCC12CN3CCN(CC(C3)/C1=N\NC(=O)c1ccc(F)cc1)C2 |  | inconclusive: 22.4 µM [falling, partial curve]
CCOC(=O)c1cc2c(C)n(-c3ccc(C)cc3)c(C)c2ccc1=O | inconclusive: -6.15% | 
NC(=O)c1ccc[n+]([C@H]2O[C@@H](COP(=O)([O-])OP(=O)(O)OC[C@H]3O[C@@H](n4cnc5c(N)ncnc54)[C@H](O)[C@@H]3O)[C@H](O)[C@@H]2O)c1 |  | inconclusive: 23.1 µM [falling, single point]
CCOc1ccc(/C=N\NC(=O)c2c(C)nc3cc(C)ccn23)cc1 | inconclusive: 1.05% | 
CCOC(=O)CSc1nnc(CNC(=O)c2cccs2)n1CCc1ccccc1 | inconclusive: -6.13% | 
O=C(O)c1cc(-c2ccc(/C=C3\NC(=O)N(c4ccccc4)C3=O)o2)ccc1Cl | inconclusive: -1.1% | 
CCc1ccc(OCc2ccc(C(=O)NCc3ccccn3)o2)cc1 | inactive | 
CCN(C(=O)CSc1nc2nc(C)cc(C)n2n1)C1CCS(=O)(=O)C1 (stereo unspecified) | inactive | 
